# The whole screen tested about 360,000 compounds, of which about 7,500 (2.1%) were called active. This list was built around the results that the source calls inconclusive (neither active nor inactive); the mix of calls is not that of the screen. Calls come from the whole dose curve; as a rule, active = well fitted inhibition curve with a large enough effect; inconclusive = small, poorly fitted or top-dose-only effect, or effect the other way; inactive = flat fitted curve, though single readings scatter. A potency beside an inconclusive call is a rough fit, not a confirmed value.
# Assay: Nrf2 qHTS screen for inhibitors; note: nearly all actives have a fitted effect of over 60% in size
# Settings: A549 ARE-Fluc reporter, luciferase luminescence, 18-24 h; activity change, negative = inhibition: at 46 µM (top of the series)
# In short: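 Nrf2 function is reported as luminescence of an ARE-controlled luciferase in A549 cells. Compounds were tested at several concentrations, and a CellTiter-Fluor read on the same wells flagged cytotoxicity.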
# % is set by controls: 0 for no effect and ±100 for the full control effect; potency is the fitted concentration of half-maximal effect.
SMILES,Potency,"activity change, negative = inhibition"
Cc1cccc(N2CCN(C(=O)CCS(=O)(=O)c3ccc4c(c3)NC(=O)C(C)S4)CC2)c1C (stereo unspecified),active: 2.59 µM,–
Cc1cccn2c(=O)c3cc(C(=O)NCCN4CCOCC4)c(=N)n(CCN4CCOCC4)c3nc12,–,inactive: 4.98%
O=C(Nc1ccccc1-c1nnc(SCc2ccccc2)o1)c1ccccc1,"inconclusive: 18.4 µM [falling, partial curve, poor fit]",–
Cc1ccnc(NC(=O)CCC(=O)N(CC(=O)NCc2ccc(F)cc2)Cc2ccccc2)c1,"inconclusive: 6.51 µM [activator, partial curve]",–
Cc1occc1C(=O)N=Nc1c(O)n(C)c2ccccc12,"inconclusive: 0.82 µM [activator, full curve]",–
Cc1ccccc1-c1cc(C(=O)NCC2CC2)nn1CC1CC(c2cccc([N+](=O)[O-])c2)=NO1 (stereo unspecified),"inconclusive: 25.9 µM [falling, single point]",–
O=c1[nH]cnc2c1ncn2C1OC(CO)C(O)C1O (stereo unspecified),"inconclusive: 4.61 µM [falling, partial curve, poor fit]",–
CC(C(=O)O)N1c2cccc3cccc(c23)S1(=O)=O (stereo unspecified),–,inactive: -4.53%
Cc1ccc(-c2noc(CN3CCCCC3)n2)cc1,"inconclusive: 4.61 µM [activator, full curve]",–
CC/C(=N\Nc1ccc([N+](=O)[O-])cc1)c1ccccc1,active: 20.6 µM,–
O=C(CC1C(=O)NCCN1C/C=C/c1ccccc1)NCCc1ccncc1 (stereo unspecified),–,inactive: -2.49%
Cc1ccccc1-c1csc2ncnc(Sc3nnnn3C)c12,–,inactive: -10.4%
CC(=O)Nc1cc(-c2nc3cc(Cl)ccc3o2)ccc1C,"inconclusive: 2.59 µM [activator, full curve, poor fit]",–
CN(C)/C=N/c1ncnc2c1cnn2-c1ccc(C(F)(F)F)cn1,"inconclusive: 1.46 µM [activator, full curve]",–
CCCC(=O)Nc1ccc(-c2csc(N/N=C\c3ccncc3)n2)cc1,"inconclusive: 29.1 µM [falling, single point]",–
CCCCNC(=O)c1cn(-c2ccc(OCC)cc2)c(=O)c2cc(OC)c(OC)cc12,"inconclusive: 0.231 µM [falling, full curve, poor fit]",–
COCCCNC(=O)C[C@H]1C[C@H](C(=O)N(C(C)C)C(C)C)[C@@]2(C)c3[nH]c4ccc(Cl)cc4c3CCN2C1=O,"inconclusive: 29.1 µM [falling, single point]",–
O=C(O)c1ccccc1C(=O)c1ccc2c(c1)N(Cc1ccc(Cl)c(Cl)c1)C(=O)CO2,"inconclusive: 18.4 µM [falling, single point]",–
O=C(Nc1cccc(NC(=O)c2ccc([N+](=O)[O-])o2)c1)c1ccco1,–,inactive: 18.2%
Cc1ccc2nc(NC(=O)C3CCN(S(=O)(=O)c4cccc5nsnc45)CC3)sc2c1,"inconclusive: 32.6 µM [falling, single point]",–
Cc1cc(Cl)ccc1NC(=O)Cn1nc(C)c2c(C)n(-c3ccccc3)nc2c1=O,"inconclusive: 16.4 µM [activator, partial curve, poor fit]",–

SMILES,Potency,"activity change, negative = inhibition"
O=c1cc2c(nn1Cc1ccc(Cl)cc1Cl)-c1ccccc1CC2,"inconclusive: 29.1 µM [falling, single point]",–
COc1ccc(-c2cc(C3C4C=CCC(C)C4C(=O)N3Cc3ccccc3)ccc2F)cc1OC (stereo unspecified),"inconclusive: 29.1 µM [falling, single point]",–
CN(CC(=O)Nc1c(Cl)cccc1Cl)CC(=O)N(C)C1(C#N)CCCCC1,"inconclusive: 23.1 µM [falling, partial curve]",–
CCOc1ccccc1-c1nc(-c2cccc(Br)c2)no1,"inconclusive: 2.06 µM [activator, full curve]",–
CCC1CN(C(=O)N2CCC(C(=O)NCCc3cc(OC)ccc3OC)CC2)c2ccccc2O1 (stereo unspecified),active: 23.1 µM,–
COc1ccc(C(CCN(Cc2ccc(OC)c(OC)c2)C(=O)CCl)c2ccccc2)cc1 (stereo unspecified),"inconclusive: 18.4 µM [falling, partial curve, poor fit]",–
CN=C1S/C(=C\c2ccc(SC)cc2)C(=O)N1C,"inconclusive: 20.6 µM [activator, partial curve]",–
CCN(c1cccc(C(F)(F)F)c1)S(=O)(=O)c1ccc2c(c1)CCN2C(=O)C1CC1,"inconclusive: 22.4 µM [falling, single point]",–
CC(C)Oc1ccc(CNC(=O)c2ccc(CS(=O)c3cccc(Cl)c3)o2)cc1 (stereo unspecified),"inconclusive: 18.4 µM [falling, partial curve, poor fit]",–
COc1cccc(-n2cc(C(=O)Nc3cccc(C(F)(F)F)c3)c3ccccc3c2=O)c1,"inconclusive: 20.6 µM [falling, single point]",–
COc1ccc(C(=O)NC2CCCN(Cc3ccccc3F)C2)c(OC)c1OC (stereo unspecified),"inconclusive: 18.4 µM [falling, partial curve, poor fit]",–
CCN(C(=O)Cn1c(=O)n(CCCS(=O)(=O)C2CCCCC2)c(=O)c2ccccc21)c1cccc(C)c1,"inconclusive: 1.16 µM [falling, full curve, poor fit]",–
CCOC(=O)CSc1nc2ccsc2c(=O)n1C1CCN(C(=O)OCC)CC1,–,inactive: -25.6%
COc1ccc(NC(=S)NC2CCCCC2)c(OC)c1,–,inactive: -4.64%
COC(=O)c1c(-c2cccs2)csc1NC(=O)c1ccc(Br)cc1,"inconclusive: 7.31 µM [activator, partial curve, poor fit]",–
COC(=O)c1c(-c2cccs2)csc1NC(=O)c1cccc(Cl)c1,"inconclusive: 13 µM [activator, partial curve]",–
Oc1ccc(/C=N/Nc2ncc(Cl)cc2Cl)cc1,"inconclusive: 25.9 µM [activator, single point]",–
COc1ccc(NC(=S)N2CCC(NC(=O)c3ccc(F)cc3)CC2)cc1,"inconclusive: 0.0052 µM [falling, full curve, poor fit]",–
Cc1ccc(-c2nnc3ccc(SCC(=O)c4ccccc4)nn23)cc1,–,inactive: 5.32%
CCOC(=O)C1(Cc2cccc(OC)c2)CCN(Cc2ccc(C)s2)CC1,"inconclusive: 29.1 µM [falling, single point]",–

# Looked up above.
# Potency with `CC(C)Oc1ccc(CNC(=O)c2ccc(CS(=O)c3cccc(Cl)c3)o2)cc1` (stereo unspecified) is entered as inconclusive: 18.4 µM [falling, partial curve, poor fit]
# activity change, negative = inhibition with `Cc1ccc(-c2nnc3ccc(SCC(=O)c4ccccc4)nn23)cc1` is entered as inactive: 5.32%
